Source: EP2282358A1, “Host material for light-emitting devices” (Solvay SA, priority 2009, dated 2011)

Assay: OLED preparation and performance measurement (compound as electron transporting host in the spin-coated emissive layer)
Settings: for Turn-on voltages: EML 60 % ETM, 35 % TCzl, 5 % Firpic; for EQE / V / Cd/A / Lm/W: at 1000 cd/m^2; for x / y: color index; for Cd/A: luminous efficiency; for Lm/W: power efficiency
[1] = HTM TCzF, solution chlorobenzene
[2] = HTM TCzI, solution chlorobenzene

CC(C)(C)c1ccc(-c2nnc(-c3cccc(-c4nnc(-c5ccc(C(C)(C)C)cc5)o4)c3)o2)cc1 [OXD7, reference compound]
Turn-on voltages (spin-coated from chlorobenzene): 3.4 V | EQE [1]: 6.0% | V [1]: 7.5 V | EQE [2]: 6.3% | V [2]: 7.3 V | x [2]: 0.17 | y [2]: 0.37 | Cd/A [1]: 13.3 Cd/A | Cd/A [2]: 13.6 Cd/A | Lm/W [1]: 5.6 Lm/W | Lm/W [2]: 5.9 Lm/W

CC(C)(C)c1ccc(-c2nnc(-c3cc(-c4nnc(-c5ccc(C(C)(C)C)cc5)o4)cc(C(C)(C)C)c3)o2)cc1 [tBu-OXD7]
Turn-on voltages (spin-coated from toluene): 3.6 V | EQE [1]: 6.5% | V [1]: 7.7 V | EQE (HTM TCzF, solution toluene): 7.4% | V (HTM TCzF, solution toluene): 6.9 V | EQE (HTM TCzI, solution toluene): 7.7% | V (HTM TCzI, solution toluene): 7.4 V | x (HTM TCzI, solution toluene): 0.16 | y (HTM TCzI, solution toluene): 0.36 | Cd/A [1]: 14.0 Cd/A | Cd/A (HTM TCzF, solution toluene): 16.0 Cd/A | Cd/A (HTM TCzI, solution toluene): 16.3 Cd/A | Lm/W [1]: 5.7 Lm/W | Lm/W (HTM TCzF, solution toluene): 7.2 Lm/W | Lm/W (HTM TCzI, solution toluene): 7.0 Lm/W
